{"sequences": {"note": "Sequences of proteins named here, by UniProt entry; tags and fusion partners are left off.", "UniProt Q15911": "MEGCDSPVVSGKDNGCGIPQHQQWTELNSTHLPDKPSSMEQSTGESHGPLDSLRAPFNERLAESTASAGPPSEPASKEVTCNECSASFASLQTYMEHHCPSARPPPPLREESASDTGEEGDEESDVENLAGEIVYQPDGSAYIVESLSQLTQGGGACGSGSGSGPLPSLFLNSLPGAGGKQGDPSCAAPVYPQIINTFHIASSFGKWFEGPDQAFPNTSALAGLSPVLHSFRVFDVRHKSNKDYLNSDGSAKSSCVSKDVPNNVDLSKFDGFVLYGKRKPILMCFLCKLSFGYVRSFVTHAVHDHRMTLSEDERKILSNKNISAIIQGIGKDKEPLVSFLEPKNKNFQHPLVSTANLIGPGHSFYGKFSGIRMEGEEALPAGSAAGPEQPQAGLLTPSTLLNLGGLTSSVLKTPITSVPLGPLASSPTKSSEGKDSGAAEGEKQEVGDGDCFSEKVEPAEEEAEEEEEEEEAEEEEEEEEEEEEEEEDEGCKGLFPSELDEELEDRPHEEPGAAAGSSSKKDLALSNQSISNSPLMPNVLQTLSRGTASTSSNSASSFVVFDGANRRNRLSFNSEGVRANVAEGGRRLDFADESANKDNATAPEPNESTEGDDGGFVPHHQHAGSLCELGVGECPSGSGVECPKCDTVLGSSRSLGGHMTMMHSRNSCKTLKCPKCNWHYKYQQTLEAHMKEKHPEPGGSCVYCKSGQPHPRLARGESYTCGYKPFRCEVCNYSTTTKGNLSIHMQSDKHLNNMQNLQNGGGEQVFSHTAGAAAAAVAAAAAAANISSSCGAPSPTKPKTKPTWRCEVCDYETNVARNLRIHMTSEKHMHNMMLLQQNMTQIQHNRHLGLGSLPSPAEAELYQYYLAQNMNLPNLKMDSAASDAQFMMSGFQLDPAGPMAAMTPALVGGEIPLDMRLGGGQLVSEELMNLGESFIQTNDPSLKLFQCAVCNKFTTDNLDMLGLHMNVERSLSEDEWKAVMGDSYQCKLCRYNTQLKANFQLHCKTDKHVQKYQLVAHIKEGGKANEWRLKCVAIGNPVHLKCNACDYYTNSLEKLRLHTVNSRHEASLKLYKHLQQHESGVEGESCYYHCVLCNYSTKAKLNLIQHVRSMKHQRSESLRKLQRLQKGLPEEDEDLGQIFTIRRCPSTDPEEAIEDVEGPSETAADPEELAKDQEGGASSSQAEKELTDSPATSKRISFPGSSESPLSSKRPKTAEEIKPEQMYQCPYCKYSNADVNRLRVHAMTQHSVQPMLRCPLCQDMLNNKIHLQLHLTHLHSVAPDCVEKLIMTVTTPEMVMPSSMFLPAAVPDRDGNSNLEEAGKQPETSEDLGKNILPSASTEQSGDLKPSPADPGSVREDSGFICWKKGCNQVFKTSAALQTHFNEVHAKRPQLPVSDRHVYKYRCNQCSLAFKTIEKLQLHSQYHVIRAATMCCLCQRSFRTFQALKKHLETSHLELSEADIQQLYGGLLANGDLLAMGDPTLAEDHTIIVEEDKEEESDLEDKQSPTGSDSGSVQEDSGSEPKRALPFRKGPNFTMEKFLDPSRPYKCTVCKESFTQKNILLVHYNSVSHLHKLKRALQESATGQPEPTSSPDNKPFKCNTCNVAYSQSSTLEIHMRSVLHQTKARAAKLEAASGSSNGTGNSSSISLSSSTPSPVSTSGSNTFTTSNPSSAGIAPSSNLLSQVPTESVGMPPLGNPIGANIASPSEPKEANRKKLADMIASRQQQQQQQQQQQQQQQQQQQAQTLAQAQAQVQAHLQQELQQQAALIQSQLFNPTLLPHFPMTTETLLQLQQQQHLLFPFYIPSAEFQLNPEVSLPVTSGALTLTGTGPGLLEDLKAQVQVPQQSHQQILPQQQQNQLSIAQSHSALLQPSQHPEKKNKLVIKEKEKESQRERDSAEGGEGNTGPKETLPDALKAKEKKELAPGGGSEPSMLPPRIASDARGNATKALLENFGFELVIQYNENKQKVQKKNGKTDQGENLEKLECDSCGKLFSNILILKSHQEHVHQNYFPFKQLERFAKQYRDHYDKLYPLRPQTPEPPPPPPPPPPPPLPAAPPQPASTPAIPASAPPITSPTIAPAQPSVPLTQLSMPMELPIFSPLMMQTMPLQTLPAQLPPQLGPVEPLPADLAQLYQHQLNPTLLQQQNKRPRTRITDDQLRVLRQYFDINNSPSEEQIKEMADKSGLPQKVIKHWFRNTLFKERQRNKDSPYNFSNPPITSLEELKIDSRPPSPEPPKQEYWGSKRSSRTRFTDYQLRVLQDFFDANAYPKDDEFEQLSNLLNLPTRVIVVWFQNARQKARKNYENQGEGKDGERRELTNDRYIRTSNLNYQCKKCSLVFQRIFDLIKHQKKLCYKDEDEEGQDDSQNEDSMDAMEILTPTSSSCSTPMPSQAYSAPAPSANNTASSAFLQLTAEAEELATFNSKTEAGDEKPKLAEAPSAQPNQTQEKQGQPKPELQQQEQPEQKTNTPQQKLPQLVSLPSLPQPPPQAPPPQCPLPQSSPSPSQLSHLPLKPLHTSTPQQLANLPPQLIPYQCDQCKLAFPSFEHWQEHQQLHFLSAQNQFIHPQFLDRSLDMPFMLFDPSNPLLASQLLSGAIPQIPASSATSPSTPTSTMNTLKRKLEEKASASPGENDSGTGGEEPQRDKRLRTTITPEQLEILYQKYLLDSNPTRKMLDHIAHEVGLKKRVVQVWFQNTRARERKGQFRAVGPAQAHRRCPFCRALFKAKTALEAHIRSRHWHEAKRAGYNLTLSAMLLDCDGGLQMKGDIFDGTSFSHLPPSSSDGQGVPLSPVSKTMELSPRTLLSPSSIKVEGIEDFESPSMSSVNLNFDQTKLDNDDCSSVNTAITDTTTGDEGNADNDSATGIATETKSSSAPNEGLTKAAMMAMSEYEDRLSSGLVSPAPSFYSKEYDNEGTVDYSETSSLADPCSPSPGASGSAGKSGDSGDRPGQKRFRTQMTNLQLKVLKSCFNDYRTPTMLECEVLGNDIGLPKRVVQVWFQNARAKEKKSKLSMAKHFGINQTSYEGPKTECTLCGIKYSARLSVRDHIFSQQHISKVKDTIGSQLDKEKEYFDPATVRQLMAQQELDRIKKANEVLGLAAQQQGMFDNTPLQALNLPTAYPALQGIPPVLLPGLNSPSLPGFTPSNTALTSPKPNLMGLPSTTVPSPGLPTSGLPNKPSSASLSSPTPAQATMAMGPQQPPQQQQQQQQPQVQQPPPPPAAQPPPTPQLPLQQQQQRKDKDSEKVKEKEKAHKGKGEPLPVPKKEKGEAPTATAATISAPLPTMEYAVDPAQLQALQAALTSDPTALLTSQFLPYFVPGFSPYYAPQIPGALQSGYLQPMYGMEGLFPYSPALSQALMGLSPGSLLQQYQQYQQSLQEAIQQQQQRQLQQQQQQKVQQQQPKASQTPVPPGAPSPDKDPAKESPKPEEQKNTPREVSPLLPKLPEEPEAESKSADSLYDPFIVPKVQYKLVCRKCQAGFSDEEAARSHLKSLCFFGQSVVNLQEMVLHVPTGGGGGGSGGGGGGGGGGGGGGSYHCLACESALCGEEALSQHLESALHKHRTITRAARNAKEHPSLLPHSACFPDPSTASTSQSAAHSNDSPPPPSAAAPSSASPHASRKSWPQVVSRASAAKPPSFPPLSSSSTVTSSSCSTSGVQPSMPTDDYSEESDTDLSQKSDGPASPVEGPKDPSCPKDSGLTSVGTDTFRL", "UniProt P84022": "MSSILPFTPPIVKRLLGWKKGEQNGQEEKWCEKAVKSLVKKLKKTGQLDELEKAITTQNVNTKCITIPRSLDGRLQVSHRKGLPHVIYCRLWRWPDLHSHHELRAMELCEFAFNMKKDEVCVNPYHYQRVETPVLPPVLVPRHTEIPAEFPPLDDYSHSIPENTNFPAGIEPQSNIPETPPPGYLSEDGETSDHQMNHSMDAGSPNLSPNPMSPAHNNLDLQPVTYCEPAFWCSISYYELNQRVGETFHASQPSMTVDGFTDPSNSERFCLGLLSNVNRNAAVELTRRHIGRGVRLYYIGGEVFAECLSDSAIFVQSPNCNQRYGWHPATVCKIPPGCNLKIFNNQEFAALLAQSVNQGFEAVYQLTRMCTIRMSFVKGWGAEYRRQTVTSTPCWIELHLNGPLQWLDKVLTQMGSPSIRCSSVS", "UniProt Q15796": "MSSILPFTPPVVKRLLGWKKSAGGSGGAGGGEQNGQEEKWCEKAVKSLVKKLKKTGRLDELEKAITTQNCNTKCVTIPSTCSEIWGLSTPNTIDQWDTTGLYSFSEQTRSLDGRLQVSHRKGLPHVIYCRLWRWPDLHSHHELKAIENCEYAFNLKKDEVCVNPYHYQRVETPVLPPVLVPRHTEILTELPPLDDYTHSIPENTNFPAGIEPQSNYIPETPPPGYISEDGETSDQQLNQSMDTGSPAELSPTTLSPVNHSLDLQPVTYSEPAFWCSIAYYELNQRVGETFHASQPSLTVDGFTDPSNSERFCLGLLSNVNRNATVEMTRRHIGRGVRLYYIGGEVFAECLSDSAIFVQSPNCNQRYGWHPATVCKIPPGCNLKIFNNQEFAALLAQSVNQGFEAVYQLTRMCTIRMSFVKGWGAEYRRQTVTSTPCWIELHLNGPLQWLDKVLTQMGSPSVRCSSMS"}, "source": "paper PMC4106063", "key": {"[1]": {"target": "Myc-ATBF1 (AT motif-binding factor-1) (UniProt Q15911)", "assay": "co-IP; COS7 cells transfected with Flag-Smad3 and Myc-ATBF1, with or without ALK5ca/V5; lysis in TNE buffer (10 mM Tris pH 7.4, 150 mM NaCl, 1 mM EDTA, 1% NP-40); IP with anti-Myc, IB with anti-Flag; 4°C"}, "[2]": {"target": "HA-ATBF1 (AT motif-binding factor-1) (UniProt Q15911)", "assay": "DNA affinity precipitation (DNAP); lysates of transfected COS7 cells in TNE buffer mixed, incubated with biotinylated (AT-motif)3 DNA for 2 h at 4°C, precipitated with streptavidin agarose; IB with anti-Flag or anti-HA"}, "[3]": {"target": "Myc-ATBF1 (AT motif-binding factor-1) (UniProt Q15911)", "assay": "co-IP; data not shown: ATBF1 with Smad2; details not told"}}, "note": "These are yes or no findings as the source states them, for the method shown. For part of these data: Binding seen in cells or lysates may run through a third protein. Some binding calls cover weakened binding; strength is not graded here."}
{"substance": "Flag-Smad3 (from UniProt P84022 1-425)", "values": [{"measurement": "binding", "setting": "[1]", "result": "binds"}, {"measurement": "binding", "setting": "[2]", "result": "binds"}]}
{"substance": "Flag-Smad2 (from UniProt Q15796 1-467)", "values": [{"measurement": "binding", "setting": "[3]", "result": "binds"}]}
